Test results reported in patent publication US4725578A, “Compounds having therapeutic effect and the preparation thereof” (Tobishi Pharmaceutical Co., Ltd., priority 1986, dated 1988).

Tested on: P-388 cells
Experiment: Antineoplastic action against implanted P-388 cells (ip-ip), survival T/C
Assay type: in vivo, CDFl mice
Settings: Table 7, P388 (i.P. - i.P.)
Description: To the peritoneal cavity of each group of mice consisting of six CDFl mice per group, 10^6 /0.1 ml of P-388 cells or 10^5 /0.1 ml of L-1210 cells were implanted. […]
In the Table, the symbol T/C % means Treatment/Control %, that is the increase in life when the control is 100. […] This method is used in the screening of U.S. National Cancer Institute.
In Table 7, the symbol "i.P.-i.P." means that the tumor cells are implanted intraperitoneally and the compounds being tested are also administered intraperitoneally. The symbol "TR" is the therapeutic ratio obtained by dividing the dose which provides a maximum T/C value, by the dose which provides a minimum T/C value.

Compound | TR (therapeutic ratio: dose giving maximum T/C divided by dose giving minimum T/C)
CCCCCCOc1ccc2cc1Oc1ccc(cc1)CC1C(=O)N(C)C(C2)C(=O)NC(C)C(=O)NC(C)C(=O)N(C)C(Cc2ccc(OC)cc2)C(=O)NC(C)C(=O)N1C (stereo not shown) [Ex. 2, n-hexylether of the compound TPC-A] | ≈ 100
CCCCCC(=O)Oc1ccc2cc1Oc1ccc(cc1)CC1C(=O)N(C)C(C2)C(=O)NC(C)C(=O)NC(C)C(=O)N(C)C(Cc2ccc(OC)cc2)C(=O)NC(C)C(=O)N1C (stereo not shown) [Ex. 21, caproate of TPC-A] | ≈ 200
COc1ccc(CC2C(=O)NC(C)C(=O)N(C)C3Cc4ccc(cc4)Oc4cc(ccc4OC(C)=O)CC(C(=O)NC(C)C(=O)NC(C)C(=O)N2C)N(C)C3=O)cc1 (stereo not shown) [Ex. 22] | 278
COc1ccc(C[C@H]2C(=O)N[C@@H](C)C(=O)N(C)[C@H]3Cc4ccc(cc4)Oc4cc(ccc4OC)C[C@@H](C(=O)N[C@H](C)C(=O)N[C@@H](C)C(=O)N2C)N(C)C3=O)cc1 [Methylether of TPC-A] | 400
